This is an account of results in PMC7819943, “Rice protein-binding microarrays: a tool to detect cis-acting elements near promoter regions in rice”.

The chains behind the UniProt entries cited, without tags or fusion partners.
UniProt Q0JBA9, entry or part of it: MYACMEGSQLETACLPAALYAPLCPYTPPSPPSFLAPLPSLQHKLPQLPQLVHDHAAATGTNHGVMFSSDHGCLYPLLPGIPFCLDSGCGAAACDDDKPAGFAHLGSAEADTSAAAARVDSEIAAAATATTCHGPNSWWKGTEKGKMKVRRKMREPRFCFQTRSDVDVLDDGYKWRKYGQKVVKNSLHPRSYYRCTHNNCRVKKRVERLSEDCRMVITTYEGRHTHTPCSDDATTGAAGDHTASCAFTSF

Some of the results follow.

In this assay the target is OsWRKY34 (Oryza sativa, UniProt Q0JBA9 1-250). As to the kind of experiment: protein-binding microarray (RPBM); PBS, 2% BSA, 51.3 ng/ul salmon testes DNA, 50 uM zinc acetate, 200 nM TF, 25 C, 1 h; high values mean tight binding. To be noted: protein: recombinant; tags: N-terminal polyhistidine and DsRed monomer fusion (pET32a); label: CyDye5-dUTP incorporated in the synthesized complementary strand; 3' TTTTT single-stranded linker to array surface; dsDNA, one strand shown. In short, it runs like this:
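The binding signal is fluorescence intensity per feature, in arbitrary units, read on an Axon 4000B scanner. Polyhistidine- and DsRed-tagged transcription factors (N-terminal fusions) from E. coli BL21-CodonPlus were purified on Ni–NTA and applied at 200 nM for 1 h at 25 °C to a double-stranded, BSA-blocked custom Agilent array in buffer with 50 µM zinc acetate.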
Consider “CCTTTCCAAGTCGGTCGGGGTAGCTGGGTTGTCTCGCCGGCGGAGTCACCTAGTGCAG”, for which the binding signal is 12300 fluorescence intensity (a.u.).

In the case of “TCCACCGCCGCCGATAACACCCAAGCCAAGCGCGGTCGCTCGGAGTCACCTAGTGCAG”, the binding signal was 11000 fluorescence intensity (a.u.).

“GCCGATCGATCAATCGCCGCCGCCGTCTCCTCGTGTAACCCGGAGTCACCTAGTGCAG”: the binding signal was 8240 fluorescence intensity (a.u.).

Turning to “CCGCACTCTATTATTGTATTGATTAGCTTGTGTCATTCGCCGGAGTCACCTAGTGCAG”, the binding signal is 8760 fluorescence intensity (a.u.).

“AGTCCCAATCTACAACTTGCAATAAAAACCAGGCGATTACCGGAGTCACCTAGTGCAG”: the binding signal is 8640 fluorescence intensity (a.u.).

For the sequence “AGGAAGCATTTCCGTAACGGAACGCCTCATACTTGCTCTCCGGAGTCACCTAGTGCAG”, the binding signal was 8490 fluorescence intensity (a.u.).

For the sequence “TCCACTTACTTCTTCACTGCTCGCCATCATCTCCTTCTTTCGGAGTCACCTAGTGCAG”, the binding signal is 10100 fluorescence intensity (a.u.).

Turning to “CTGCACCTGCTTGATCTCTTCTATGTCACTGTTCCTCTGACGGAGTCACCTAGTGCAG”, the binding signal is 10100 fluorescence intensity (a.u.).

For the sequence “TTTATACTCCTTCTGTTTCATATTATTTTTTTCTACTAGTCGGAGTCACCTAGTGCAG”, the binding signal was 8860 fluorescence intensity (a.u.).

Consider “AAATTGGAGGGTTGGGATCTTCTATTTTTCTTGGTTAACCCGGAGTCACCTAGTGCAG”, for which the binding signal was 10100 fluorescence intensity (a.u.).

Turning to “GCTACATCCTACTACACCCTAGCTACACAACCTTTGTCCCCGGAGTCACCTAGTGCAG”, the binding signal was 9120 fluorescence intensity (a.u.).

As to “TGGCTTATTGTACGTTATACATGCGCTATTTTTGCAAAAGCGGAGTCACCTAGTGCAG”, the binding signal was 8520 fluorescence intensity (a.u.).

With “CAAGCAATATCAAATCTTTTACCACGTTTACTACTGATCCCGGAGTCACCTAGTGCAG”, the binding signal was 8550 fluorescence intensity (a.u.).

As for “CCGTCCCCGGAAACCCTAGGCACTGACCTCGCCGGAGATGCGGAGTCACCTAGTGCAG”, the binding signal was 8600 fluorescence intensity (a.u.).

In the case of “TGAGCCCCGCTATGCTCACCTACCCCATATACGCGGCGCACGGAGTCACCTAGTGCAG”, the binding signal was 8330 fluorescence intensity (a.u.).

With “TCTTCCATCGTTGTCCGCTGTCACCGTCGCTGTTCGCCTTCGGAGTCACCTAGTGCAG”, the binding signal is 16300 fluorescence intensity (a.u.).

Consider “TCTCATCTCATTTGTTTTCGTTCAACGCTATCTTTAGTTACGGAGTCACCTAGTGCAG”, for which the binding signal was 13500 fluorescence intensity (a.u.).

As for “CGCCACCCACCGCGCCCACAACACGCACGGTATATATACACGGAGTCACCTAGTGCAG”, the binding signal was 8110 fluorescence intensity (a.u.).

Consider “CGGAGGAAGGGGATTAGGGGAGGGATCGGATCTGGGGCGTCGGAGTCACCTAGTGCAG”, for which the binding signal was 11500 fluorescence intensity (a.u.).

With “CGTACTCCGTAGTTTTCTGGGTTAGCGAGCCTGTACCGATCGGAGTCACCTAGTGCAG”, the binding signal was 9060 fluorescence intensity (a.u.).

For the sequence “CGCGTTTCTCTCCTCTTTTCTCTCTCCTTCCTTGATCTCCCGGAGTCACCTAGTGCAG”, the binding signal was 9020 fluorescence intensity (a.u.).

As for “TCACCGCGTAGCCGTAGCCGTTTCCATTAGCCCACTCCTCCGGAGTCACCTAGTGCAG”, the binding signal was 8230 fluorescence intensity (a.u.).

As to “TTAGTTTTTTCATTCGTGTCCGAAAATCCCTTCCGACATCCGGAGTCACCTAGTGCAG”, the binding signal was 8590 fluorescence intensity (a.u.).

As for “TTTTGGACTGCTATCACGTGATTATTGTTTATTTTGTTATCGGAGTCACCTAGTGCAG”, the binding signal is 8240 fluorescence intensity (a.u.).

In the case of “AGTTTTTTTTCATCTGGGTCTTCTCATCTGATTTAGAATACGGAGTCACCTAGTGCAG”, the binding signal is 9050 fluorescence intensity (a.u.).

On to “TATTAATCACCCAAGTCGATCCATAGTTCCATACATGCTACGGAGTCACCTAGTGCAG”, for which the binding signal is 8650 fluorescence intensity (a.u.).

Take “ATTTGATTTCTATCAACCAACACCTATTTTTACACTTTTTCGGAGTCACCTAGTGCAG”: the binding signal was 8040 fluorescence intensity (a.u.).

Turning to “GATTCATCTTGCCCTCAAAGTTTCCTGCTTTGTTTGATCACGGAGTCACCTAGTGCAG”, the binding signal is 9520 fluorescence intensity (a.u.).

Regarding “AACGGAGACTAACACCAATGATCACCTGTGCACAGTTCCACGGAGTCACCTAGTGCAG”, the binding signal was 8640 fluorescence intensity (a.u.).

With “TTATATATTTGTCCTTGTAAAATTAACGGGTTGTTTGTCTCGGAGTCACCTAGTGCAG”, the binding signal is 9980 fluorescence intensity (a.u.).

Take “CTAGTTTATTTTTCAGATTCTACAGTTATATATTCTCATCCGGAGTCACCTAGTGCAG”: the binding signal is 8120 fluorescence intensity (a.u.).

Take “TCTTGGCATCCTATGTTAGTTTGAAGGTATTTTATTTTCACGGAGTCACCTAGTGCAG”: the binding signal is 8400 fluorescence intensity (a.u.).

“TTCTCTTTTATCTGTTTGCTTCCTATAAATTCTACGCGATCGGAGTCACCTAGTGCAG”: the binding signal is 8480 fluorescence intensity (a.u.).

On to “GCCACGATTTGGGAGACCCATTTTCTTCTTTTATTTCTTTCGGAGTCACCTAGTGCAG”, for which the binding signal is 8760 fluorescence intensity (a.u.).

For “GGCCCACTCCAACTCGACCCAACCCAACCCAAACCCAACCCGGAGTCACCTAGTGCAG”, the binding signal was 9170 fluorescence intensity (a.u.).

Take “CTTGGGCGTCTTGTGTTTGTGGGTGAGGTAGCCAGCTGCCCGGAGTCACCTAGTGCAG”: the binding signal is 9910 fluorescence intensity (a.u.).

On to “ACTTTATTGTTTTTCTTCTTATTTTATTTCTCTGTTCTTTCGGAGTCACCTAGTGCAG”, for which the binding signal was 10300 fluorescence intensity (a.u.).

Regarding “GAGTATTTGAGTTGTTCCTTCCGCTTGTTGGGGAGCCATGCGGAGTCACCTAGTGCAG”, the binding signal was 8460 fluorescence intensity (a.u.).

As to “TTATAACATGTCATTAATAAAGGGCATTATGCAACTAATACGGAGTCACCTAGTGCAG”, the binding signal is 64200 fluorescence intensity (a.u.).

Turning to “GATAGCGATGAGAGTGGGTGTGGGGTGGCGACGACGGATTCGGAGTCACCTAGTGCAG”, the binding signal is 10100 fluorescence intensity (a.u.).

With “CGTCTCCAAGCTCCGGACCCAGCTGGGCGTCATCCACCCGCGGAGTCACCTAGTGCAG”, the binding signal was 9510 fluorescence intensity (a.u.).

On to “ACCAAACACAGAATCATCATCCATCGATCCAAGTAGCTAGCGGAGTCACCTAGTGCAG”, for which the binding signal was 9540 fluorescence intensity (a.u.).
